Assay results from patent EP3913370A1, “METHOD FOR DIAGNOSING CARCINOMAS USING IRGD AS A TUMOR MARKER BOOSTER” (Piiper, Albrecht, priority 2020, dated 2021).
At least one peptide structure holds a part that was inferred or is arguable (an end, a ring closure or a residue). Positions of bridges follow the written chain, without caps; N, C: chain ends. Residues, ends and D or L forms follow the SMILES beside them.

How the values were obtained:
LNCaP tumors = experiment: Blood PSA level before and after i.v. peptide injection, LNCaP xenograft nude mice (Elecsys total PSA immunoassay); type: in vivo; settings: nude mice xenografted with LNCaP tumors, 5 min before and 90 min after injection
HepG2 tumors [1] = experiment: Blood autotaxin level before and after i.v. peptide injection, HepG2 xenograft nude mice (ELISA); type: in vivo; settings: nude mice xenografted with HepG2 tumors, 5 min before and 90 min after injection
HepG2 tumors [2] = experiment: Blood AFP level before and after i.v. peptide injection, HepG2 xenograft nude mice (ELISA); type: in vivo; settings: 4 µmol/kg i.v.; for blood AFP levels: nude mice with HepG2 tumors, blood 5 min before and 90 min after injection
Huh-7 tumors = experiment: Blood AFP level before and after i.v. peptide injection, Huh-7 xenograft nude mice (ELISA); type: in vivo; settings: nude mice with Huh-7 tumors; 4 µmol/kg i.v.; blood 5 min before and 90 min after injection
endogenously formed HCCs = experiment: Blood AFP level before and after i.v. peptide injection, transgenic TGFa/c-myc mice (ELISA); type: in vivo
liver fibrosis = experiment: Blood AFP level before and after iRGD in mouse models of liver fibrosis; type: in vivo; settings: three liver fibrosis models without HCC: Ad-2D6, Mdr2-/- mice, CCl4 treatment; i.v.
metastasis = settings: pre-clinical studies (ref. 16); cited from earlier work
[3] = TGFa/c-myc mice with HCCs (20-24 weeks old), 4 µmol/kg i.v., 5 min before and 90 min after injection

Structure (SMILES) | change in the blood PSA level (LNCaP tumors) | blood levels of autotaxin (HepG2 tumors [1]) | blood AFP levels (HepG2 tumors [2]) | blood AFP levels (Huh-7 tumors) | blood AFP levels (endogenously formed HCCs; [3]) | blood AFP levels (liver fibrosis) | average increase in the blood PSA level (LNCaP tumors) | blood AFP levels versus levels prior to the injection (HepG2 tumors [2]; HepG2 xenografts (Fig. 1c), 90 min after versus 5 min before injection) | metastasis (metastasis) | blood AFP levels (endogenously formed HCCs; TGFa/c-myc mice prior to tumor development at 6-7 weeks of age, i.v.) | portion of TGFa/c-myc HCC mice showing a stronger increase in the blood AFP level than any of the PBS-injected, HCC bearing mice (endogenously formed HCCs; TGFa/c-myc mice with HCC, n=48, i.v. injection) | blood AFP levels (endogenously formed HCCs; TGFa/c-myc mice with large HCCs (>7 mm maximum diameter)) | blood AFP (endogenously formed HCCs; TGFa/c-myc mice with small (1-3 mm) and medium (3-7 mm) size liver tumors, normal basal blood AFP)
N=C(N)NCCC[C@@H]1NC(=O)[C@@H](N)CSSC[C@@H](C(=O)O)NC(=O)[C@H](CCCCN)NC(=O)[C@@H]2CCCN2C(=O)CNC(=O)[C@H](CC(=O)O)NC(=O)[C@H](CC(=O)O)NC(=O)CNC1=O [RGD control peptide, CRGDDGPKC (SEQ ID No. 5), reference compound] (H-CRGDDGPKC-OH; disulfide 1-9) | not observed | had no effect | had no effect | had no effect | had no effect | – | – | – | – | – | – | – | –
N=C(N)NCCC[C@@H]1NC(=O)[C@@H](N)CSSC[C@@H](C(=O)O)NC(=O)[C@H](CC(=O)O)NC(=O)[C@@H]2CCCN2C(=O)CNC(=O)[C@H](CCCCN)NC(=O)[C@H](CC(=O)O)NC(=O)CNC1=O [iRGD, CRGDKGPDC (SEQ ID No. 1)] | – | caused an increase | caused an increase | caused an increase | caused an increase | did not increase | 1.3 fold | approximately two-fold | inhibits metastasis | did not influence | 31% | no statistically significant effect | elevated blood AFP in a substantial portion of mice
